This passage reports binding results from PMC3342315.

Protein sequences, listed by entry. Tags and fused reporters are not part of them.
UniProt P50221: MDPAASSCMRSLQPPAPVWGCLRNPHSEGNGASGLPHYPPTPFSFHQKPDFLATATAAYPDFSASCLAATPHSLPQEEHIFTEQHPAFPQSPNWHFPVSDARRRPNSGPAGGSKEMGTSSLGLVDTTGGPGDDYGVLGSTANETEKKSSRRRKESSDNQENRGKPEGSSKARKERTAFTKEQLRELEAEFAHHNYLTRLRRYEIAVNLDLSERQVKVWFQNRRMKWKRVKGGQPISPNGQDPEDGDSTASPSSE

This assay concerns the target T1, PBX1-V5 (UniProt P40424).
T1 sequence: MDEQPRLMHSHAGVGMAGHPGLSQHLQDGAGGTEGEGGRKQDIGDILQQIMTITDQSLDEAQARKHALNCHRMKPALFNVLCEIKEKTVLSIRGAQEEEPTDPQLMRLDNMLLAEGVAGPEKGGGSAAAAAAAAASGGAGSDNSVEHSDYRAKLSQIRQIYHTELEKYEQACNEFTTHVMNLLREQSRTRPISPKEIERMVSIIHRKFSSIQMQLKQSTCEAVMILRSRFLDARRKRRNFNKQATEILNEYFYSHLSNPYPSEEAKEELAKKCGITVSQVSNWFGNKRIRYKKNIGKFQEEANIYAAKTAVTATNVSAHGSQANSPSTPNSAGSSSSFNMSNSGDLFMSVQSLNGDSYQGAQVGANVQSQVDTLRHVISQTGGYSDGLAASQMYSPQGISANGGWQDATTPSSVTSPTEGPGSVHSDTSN
Briefly: co-IP; HEK293 cells transfected with PBX1-V5 and/or MEOX1-FLAG, harvested 24 h after transfection; lysis buffer 50 mM Tris pH 8.0, 150 mM NaCl, 1% NP40; lysates incubated with anti-V5 agarose or anti-FLAG M2 affinity gel; Western blot with anti-FLAG or anti-V5 antibody.

No constants are given. Whether binding was seen depends on the method and setting. In cells and extracts the contact can be indirect. Some binding calls cover weakened binding; strength is not graded here. Tags and fused reporters may be left off the sequences shown.

Regarding MEOX1-FLAG (from UniProt P50221 1-254), the binding entry is “binds”.
